## Percent effect of library compounds

By UniProt entry, the sequences of proteins in these tests, tags left out.
UniProt P9WPC5, whole entry: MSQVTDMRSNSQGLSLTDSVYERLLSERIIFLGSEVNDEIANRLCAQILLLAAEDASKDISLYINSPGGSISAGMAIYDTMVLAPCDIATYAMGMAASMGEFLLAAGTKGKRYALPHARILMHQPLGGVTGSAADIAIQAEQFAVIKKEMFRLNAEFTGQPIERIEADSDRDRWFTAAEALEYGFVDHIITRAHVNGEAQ
UniProt P9WPC3, whole entry partner: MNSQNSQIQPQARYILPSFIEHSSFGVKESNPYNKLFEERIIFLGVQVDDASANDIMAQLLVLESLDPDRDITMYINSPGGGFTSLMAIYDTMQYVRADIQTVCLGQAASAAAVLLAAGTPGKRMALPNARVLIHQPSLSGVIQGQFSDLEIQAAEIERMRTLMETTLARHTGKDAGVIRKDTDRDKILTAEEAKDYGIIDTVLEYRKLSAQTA

A: 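Assay of Toxoplasma gondii numbers, read through their beta-galactosidase reporter with a colour substrate. Compounds at 10 µM. Higher reads as fewer parasites (inferred from which compounds were picked for retests). Of about 67,000 compounds tested this way, about 260 (0.38%) reached 50% or more in at least one test.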
B: 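ClpP1P2, Mycobacterium tuberculosis (UniProt P9WPC5 and UniProt P9WPC3). Protease assay of ClpP1P2, read by the AMC dye that it sets free. Concentration: 50 µM. Direction is inferred from only a few compounds that gave an IC50; most scored high, so higher reads as stronger inhibition. Most other retested compounds had strongly negative values. About 69,000 compounds were tested under these conditions; 0.015% (about 10) showed 50% or more at least once.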

Results are given as percent effect. How 0% and 100% were set is not recorded. Most values in the screen are low, and negative values occur. This is an unselected part of the compounds tested. A dash means the value is not listed here; it may have been measured.

| compound | A | B |
|---|---|---|
| `[H][C@@]12CCCO[C@]1([H])[C@H](NS(C)(=O)=O)CN(Cc1cccc(C)n1)C2` | 0.2137 | - |
| `NC(=O)C(Cc1ccccc1)NS(=O)(=O)Cc1ccccc1Cl` (centres unmarked) | 50.03 | 8.216 |
| `c1cnc(NCc2nnn3c2CN(CC2CC2)CCC3)nc1` | - | -2.115 |
| `NCC1(CN2CCOCC2)CCCCC1` | 1.561 | -0.4732 |
| `Cc1cc(CC(C)NC2CCSCC2)[nH]n1` (centres unmarked) | -45.9 | -5.723 |
| `CCCc1nc(C(=O)N2CCN(C(=O)OC)CC2)cs1` | -0.8582 | -4.418 |
| `COc1ccsc1C(=O)N1CCCC(n2cncn2)C1` (centres unmarked) | -27.15 | -22.65 |
| `O=C(NCc1ccccc1Cn1ccnc1)N1CCOCC1` | -7.528 | -8.701 |
| `CC(=O)N1CCC(N2CCOC[C@H]2c2nc(-c3ccncc3)c[nH]2)CC1` | -1.47 | -12.29 |
| `[H][C@]12CC[C@]([H])(CN(Cc3cscn3)C1)N(C(=O)c1ccnc(OC)c1)C2` | 6.411 | - |
| `CN(C)C(=O)c1cccc(CN2CCOC(Cn3cccn3)C2)c1` (centres unmarked) | 12.8 | -19.38 |
| `Cc1nc(C2CCCN(C(=O)c3ccc(N4CCCC4)nc3)C2)no1` (centres unmarked) | 11.98 | 6.93 |
| `Cc1ccc(OCC(C)NS(C)(=O)=O)cc1` (centres unmarked) | -16.48 | -3.383 |
| `CC1CCN(c2cc(CCC3CCCN3)ncn2)CC1` (centres unmarked) | - | -10.45 |
| `[H][C@@]12CCN(C(=O)c3ccoc3)C[C@@]1([H])O[C@H](c1ccncn1)C2` | 3.864 | - |
| `CCOc1cc(C(=O)n2cc(C)cn2)cc(OCC)c1OCC` | -4.524 | 0.7371 |
| `Cc1cccnc1CNC[C@H]1Cn2cc(-c3ccccc3)nc2CO1` | 5.958 | -5.921 |
| `Cn1cc(C(=O)NCc2cncc3c2CCNC3)cn1` | - | -0.529 |
| `c1ccc(Cc2noc(CN3CCCC(Cn4cncn4)C3)n2)cc1` (centres unmarked) | -15.34 | -1.132 |
| `CCN1CC2(CC1=O)CN(Cc1ccc(C)o1)CCN(C(=O)C(C)C)C2` (centres unmarked) | - | -9.09 |
| `C1CC(c2noc(C3CC3)n2)CN(Cc2noc(C3CC3)n2)C1` (centres unmarked) | -3.159 | 6.771 |
| `Cc1nn(C)cc1C(=O)N1CCCC(c2nccn2CC2CCC2)C1` (centres unmarked) | -10.16 | -11.52 |
| `CN1C(=O)CC[C@]12CC[C@@H](NCc1ccsc1)CC2` | - | -8.944 |
| `CN(Cc1ccc(C2CC(=O)Nc3cc4[nH]ncc4cc32)o1)S(C)(=O)=O` (centres unmarked) | 9.892 | -0.1218 |
| `Cc1cccc(-c2nc(CN3CCc4cncnc4C3)no2)c1` | 4.32 | -28.46 |
| `Cc1cn2c(=O)c(-c3ccnc(NC4CCOCC4)n3)cnc2s1` | 0.4838 | -8.157 |
| `CC(C)C(Sc1nnnn1C1CC1)C(=O)NCc1ccccc1` (centres unmarked) | -15.12 | 10.22 |
| `CN(Cc1ccccc1CN1CCCC1)C(=O)c1c[nH]c(=O)[nH]1` | 12.19 | 10.86 |
| `[H][C@@]12C[C@@H](Oc3ccccc3)C[C@]1([H])CN(C(=O)c1cnc(N(C)C)nc1)C2` | 39.16 | - |
| `NC(=O)c1cc(C2CCCN(CCc3ccccn3)C2)n[nH]1` (centres unmarked) | -3.233 | 1.858 |
| `O=C(c1cccs1)N1CCc2ncnc(C3CCOC3)c2CC1` (centres unmarked) | 8.55 | -1.105 |
| `CCOCCCNC(=O)c1cc(C)nc(N2CCCC2)n1` | 9.325 | 3.448 |
| `Cc1n[nH]c(=O)c2c(NC(=O)CN3CCC(C)CC3)oc(C)c12` | 3.03 | -6.523 |
| `O=C(Nc1ccc(CN2CCOCC2)cc1)c1nccn2ccnc12` | -2.801 | -7.161 |
| `[H][C@@]12CN(C(=O)NC3CC3)C[C@]1([H])C(=O)N(c1ccccc1)C2` | 13.65 | - |
| `COCC(=O)NC1CC2(CCN(CCF)CC2)Oc2ccccc21` (centres unmarked) | - | 3.32 |
| `COCCN(C)Cc1ccc(OC)c(OC(F)F)c1` | 6.667 | -24.01 |
| `O=C(CCc1nc2cc(Br)cnc2[nH]1)NCCCn1ccnc1` | 0.4174 | -10.13 |
| `Cc1cccc(-n2ncc3c2CCCC3NCc2cnn(C)c2C)c1C` (centres unmarked) | 29.86 | -8.546 |
| `CCc1cc(N[C@H](C(N)=O)[C@@H](C)CC)n2nccc2n1` | 2.767 | -8.225 |
| `CCOc1ccc(C(=O)CC(SC2CCCCC2)C(=O)O)cc1` (centres unmarked) | 9.271 | -5.507 |
| `COC(=O)c1ccc(C2SC(C)=Nc3c2c(=O)[nH]n3C2CCCC2)cc1` (centres unmarked) | 17.65 | -5.846 |
| `COC(C)c1nc(CN2CCNCC2)cs1` (centres unmarked) | 10.51 | -14.18 |
| `Cc1cnn(CC(C)NCc2ccc(C#N)cc2)c1` (centres unmarked) | 2.747 | -4.332 |
| `CN(Cc1cccs1)C1CCC[C@@H]2CN(C(=O)c3cccn3C)C[C@H]12` (some centres unmarked) | - | 3.765 |
| `O=C(O)C(F)(F)F.[H][C@@]12CN(Cc3ccccc3)C[C@]1([H])C(=O)N(c1cncnc1)C2` | 0.06028 | - |
| `COCCCNC(=O)Nc1cccc2ncccc12` | 9.927 | 2.279 |
| `CCCc1nccn1CCn1cnc2ccsc2c1=O` | 2.62 | 1.767 |
| `CN1CCN(C(=O)c2cc3c(s2)CCN3C(=O)C2CC2)CC1` | 9.882 | 2.613 |
| `CN(C)C(=O)c1ccccc1NC(=O)N[C@@H]1c2ccccc2C[C@@H]1O` | -22.35 | -8.393 |
| `CNS(=O)(=O)c1cc(C)c2[nH]c(=O)cc(C)c2c1` | -8.528 | -10.53 |
| `CC(=O)NCCNC(=O)CN1CCOC(Cn2cc(C)cn2)C1` (centres unmarked) | -14.08 | 1.172 |
| `O=C(O)C(F)(F)F.[H][C@]12CCN(Cc3c(C)noc3C)[C@@]1([H])CC[C@H](COCC)O2` | 2.217 | - |
| `CC1CCCCN1c1nc2c(c(=O)[nH]1)CCN(Cc1ccccc1F)C2` (centres unmarked) | -10.95 | -13.7 |
| `Cc1occc1CNC(=O)NCCN(C)C1CCCC1` | -0.5624 | -17.79 |
| `CC1CCN(C(=O)[C@H]2C[C@@H]3CCN(CC4CCOCC4)C[C@@H]3O2)CC1` | - | -0.7137 |
| `Cc1nnsc1C(=O)N1CCC2(CC1)c1nc[nH]c1CCN2CC(C)C` | -4.405 | -0.7975 |
| `Cc1cccc(OC2CCN(C(=O)c3ccc4c(c3)OCO4)CC2)n1` | 3.907 | -19.03 |
| `CS(=O)(=O)N[C@H]1CN(C(=O)CCc2ccco2)C[C@@H]1C1CC1` | 0.5481 | -0.02696 |
| `CCCN(C(=O)c1cccnc1)c1nc2c(s1)CCc1c-2cnn1C` | -21.25 | 8.479 |
| `CC(C)c1ccc(OCCC(=O)N2CCC(C(N)=O)CC2)cc1` | 7.273 | -18.26 |
| `FC(F)(F)c1ccc(-c2noc3c2CN(CC2CCCO2)CC3)cc1` (centres unmarked) | -8.603 | -8.633 |
| `COCCCNC(=O)CN(C)C(=O)c1ccccc1O` | -4.351 | -10.49 |
| `O=C(CCSc1ccccc1)NCC1CCN(Cc2ccsc2)CC1` | 16.63 | -0.8982 |
| `[H][C@@]12CCN(S(=O)(=O)Cc3ccccc3)[C@]1([H])CCC(=O)N2C` | 14.28 | - |
| `CN(C)CC(=O)N1CC[C@H]2OCC[C@@]2(COCC2CC2)C1` | - | -2.653 |
| `COCCCn1nnc(C2(NC(=O)c3ccccc3)CCCC2)n1` | - | -6.663 |
| `Cc1cnn(CC(C)NCc2c(C)nn(Cc3ccccc3)c2C)c1` (centres unmarked) | -28.91 | -19.46 |
| `CCN(C(=O)CN1CCC(c2cc3ccccc3[nH]2)CC1)C1CC1` | 2.483 | 3.905 |
| `O=C(NCc1ccc(-n2cncn2)nc1)c1cc[nH]n1` | -4.584 | 8.565 |
| `O=S(=O)(Nc1cn[nH]c1)c1ccc(Br)c(F)c1` | -2.401 | -2.833 |
| `CCc1ccc(CN2CCC3(CCCN(C(=O)N(C)C)C3)C2)o1` (centres unmarked) | -0.6627 | 8.565 |
| `CS(=O)(=O)NC[C@@H]1OC[C@H]2CN(C(=O)c3ccccc3)CC[C@H]21` | - | 2.086 |

For reference, 5 entries once more:

| compound | A | B |
|---|---|---|
| `Cc1nc(C2CCCN(C(=O)c3ccc(N4CCCC4)nc3)C2)no1` (centres unmarked) | 11.98 | 6.93 |
| `COc1ccsc1C(=O)N1CCCC(n2cncn2)C1` (centres unmarked) | -27.15 | -22.65 |
| `CN1C(=O)CC[C@]12CC[C@@H](NCc1ccsc1)CC2` | - | -8.944 |
| `Cc1cccc(-n2ncc3c2CCCC3NCc2cnn(C)c2C)c1C` (centres unmarked) | 29.86 | -8.546 |
| `CC(C)C(Sc1nnnn1C1CC1)C(=O)NCc1ccccc1` (centres unmarked) | -15.12 | 10.22 |

Measurements from “University of Dundee, Small-Polar-MMV Screening Library” (2021), ChEMBL document CHEMBL3988442.